Laboratory results from the supplement of paper PMC5949888.
Most values lie at the floor of the assay. Slopes are relative: functional sequences can read slightly below zero.

Each substance was assayed on Saccharomyces cerevisiae PS128 hsf1 delta, HSF1(1-493) fusion (assay: growth estimate (transactivation domain function in HSF1 fusion, heat-shock survival) (a.u. (slope of normalised read count over time)); higher = stronger growth at 37°C, i.e. more transactivation activity). Conditions: library: random library.
Procedure: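 Random 60-nt DNA library encoding peptides of up to 20 aa, fused to the C-terminus of yeast HSF1 residues 1-493 (C-terminal TAD deleted) and expressed from the native HSF1 promoter on a CEN plasmid in hsf1-deleted S. cerevisiae PS128. Cells were selected at 37°C on -trp 5-FOA plates for 0, 2, 4, 6 and 8 days and amplicons were sequenced. Growth estimate is the slope of a robust linear fit of total-sum-normalised read counts (normalised to the first time point) over time, using at least 2 replicates. Sequences are classed functional (TAD activity) above a threshold of -0.13, set from stop-codon control sequences.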
Work on TRLRVRPFVSA yielded a growth estimate of under -0.25.
Work on PVVLPWHRIAVFAVNWLLVR yielded a growth estimate of under -0.25.
QYRQCRWFERGGSSVGSWIK showed a growth estimate of under -0.25.
QVSQRTRRNRQCRLTRC gave a growth estimate of under -0.25.
Substance GSVPRMIPCSTRVADNAS has a growth estimate of under -0.25.
GRGQATGFVTKSPPSYERMS gave a growth estimate of under -0.25.
In the case of LYYEMKFGLLQLLQLVLENA, the growth estimate is reported as under -0.25.
Substance ERESTYVG has a growth estimate of under -0.25.
For VGCQ, the growth estimate was under -0.25.
In the case of PRVKSGLWEPSISCVCIGGV, the growth estimate is reported as under -0.25.
For RCPRGTDHCQLSRVFGLVHG, the growth estimate was under -0.25.
Substance NNFIVGRQRI has a growth estimate of -0.25.
With TSLIRP the growth estimate was under -0.25.
In the case of REVPQVTGTIYVSKRHACLL, the growth estimate is reported as under -0.25.
For TSGRMPAYSKKEDARIPSRR, the growth estimate was under -0.25.
LRCRTYVARPRKSYFGRRVR was tested, and the growth estimate was under -0.25.
GSVGLVDTTRLSDEVASEA showed a growth estimate of under -0.25.
HGLVVLRVPASDLRTCGDIA gave a growth estimate of under -0.25.
PVSVPM gave a growth estimate of under -0.25.
For IGRRRRVEVFAFEVLLLRSR, the growth estimate was under -0.25.
IADVWYDAGAGITSDSCHGF gave a growth estimate of -0.146.
For RMVNQSANLRFKRPSSRDCL, the growth estimate was under -0.25.
Work on PCSQVGLLTYLFHRERTSTD yielded a growth estimate of under -0.25.
Work on FTRTSHLTLVTTDHHNSGLV yielded a growth estimate of -0.246.
CCRSHDTRYICVPRRIRISL was tested, and the growth estimate was under -0.25.
AIDV showed a growth estimate of under -0.25.
With RRTARGITYVGIRRLHQAVS the growth estimate was under -0.25.
With FTGPFSISPVSAGSLGSLS the growth estimate was under -0.25.
For GSFKYAALLGSAGIT, the growth estimate was under -0.25.
In the case of NCC, the growth estimate is reported as under -0.25.
With AMSCECFVPSTLLVVIPNTW the growth estimate was under -0.25.
SSVVQYGYVC gave a growth estimate of under -0.25.
TIGVEGHAFHTRLTGVFLLT showed a growth estimate of under -0.25.
Work on RESVFS yielded a growth estimate of under -0.25.
AIGGLRPPISIQTGLRDSLL gave a growth estimate of under -0.25.
GEPQLSEHLLSHRREVLAMA gave a growth estimate of under -0.25.
With HRQWLSFSIRMTRVNQYDQA the growth estimate was under -0.25.
GLVRAR gave a growth estimate of under -0.25.
SGSATVLGEVGSGALQSVVG showed a growth estimate of under -0.25.
For TFHVSSRTWFSVRPRLRQSC, the growth estimate was under -0.25.
With SFAHHYGYYRGQVF the growth estimate was under -0.25.
With ECVCKCCCSEY the growth estimate was under -0.25.
VTSTRQSHGTGRGELSLRSS was tested, and the growth estimate was under -0.25.
In the case of RFES, the growth estimate is reported as under -0.25.
SIFKSTMSEIRVGVIRSVLE showed a growth estimate of under -0.25.
For PALRHWK, the growth estimate was under -0.25.
VWVGSARYATRHQPPKTPCL showed a growth estimate of under -0.25.
For KCNTLTQFRP, the growth estimate was under -0.25.
With CYDLLQT the growth estimate was under -0.25.
With RHVRVRYDPFCNNR the growth estimate was under -0.25.
Substance LFAAGKPVCGVGVGRSLRFL has a growth estimate of under -0.25.
For RRPSQGSRGRRYC, the growth estimate was under -0.25.
In the case of RISVICSSPVIDRIRILVHG, the growth estimate is reported as -0.24.
ELQCQYTGSHDGRVDKAVVG was tested, and the growth estimate was under -0.25.
Substance GSIREPRAS has a growth estimate of under -0.25.
In the case of FCSSWPSFRWTDFGNLLISL, the growth estimate is reported as under -0.25.
For RAPREPRSLRTRHQDPGSLG, the growth estimate was under -0.25.
With GPA the growth estimate was under -0.25.
Work on TFLDYDL yielded a growth estimate of under -0.25.
VTVFCGLWCDPWGC showed a growth estimate of under -0.25.
AVALSCCRKRPGDRCRHISS gave a growth estimate of under -0.25.
HPRDHEAPTQCL gave a growth estimate of under -0.25.
Work on LSMGWSRP yielded a growth estimate of under -0.25.
Substance AKPERANSHLSPAVTGSQPP has a growth estimate of under -0.25.
SPLCPVAISQEIHLTSPGIG showed a growth estimate of under -0.25.
In the case of VIFGLPRVRLRILR, the growth estimate is reported as under -0.25.
GSFGEYTCLVGISQNYLYQS showed a growth estimate of under -0.25.
Substance LIRDAAGGVSRLRGHMPALA has a growth estimate of under -0.25.
LGNTSPESCRSQRSPERGEH was tested, and the growth estimate was under -0.25.
Substance FEYHGLQ has a growth estimate of under -0.25.
For NCALTGRKLRGIRGALRWPV, the growth estimate was under -0.25.
CRHKCEGVIGPSVSF showed a growth estimate of under -0.25.
Work on HRNHQE yielded a growth estimate of under -0.25.
For PSGEIESRGV, the growth estimate was under -0.25.
QPCHAACNGIGTAKRVPDNG was tested, and the growth estimate was under -0.25.
Work on TTLRFRPSELREHQGQGCAG yielded a growth estimate of under -0.25.
NRAYGNSNRRPAGTAGVGQ gave a growth estimate of under -0.25.
RDP was tested, and the growth estimate was under -0.25.
SVNRPTTRYYSGACDSR was tested, and the growth estimate was under -0.25.
With INDRRS the growth estimate was under -0.25.
Work on KFVNKYRVMIH yielded a growth estimate of under -0.25.
Substance VYRAVRSRVPADR has a growth estimate of under -0.25.
Substance QSRVLSSGEAPCVGDNLRGI has a growth estimate of under -0.25.
Substance IKEYRSTSWLSVTL has a growth estimate of under -0.25.
Work on VYTALDNHS yielded a growth estimate of under -0.25.
SYKNEPRPSNIKA showed a growth estimate of under -0.25.
FSI showed a growth estimate of under -0.25.
SCLVVFPSRSVIPEKAP was tested, and the growth estimate was under -0.25.
Substance NVRRLACEAHTFRFHSEL has a growth estimate of under -0.25.
KTRANHLM showed a growth estimate of under -0.25.
In the case of PVLSGKPTHVCYIPEVRMDL, the growth estimate is reported as under -0.25.
Substance YAVDHLRLLMCKSMREDVVR has a growth estimate of under -0.25.
With MLSTIGY the growth estimate was under -0.25.
VAPSMPH was tested, and the growth estimate was under -0.25.
PVCILQRIEREFPVAATRQF was tested, and the growth estimate was under -0.25.
YILQILWLVAIIFT showed a growth estimate of under -0.25.
In the case of PRPSL, the growth estimate is reported as under -0.25.
Substance IQGAQCLSAWRQNAAALPLR has a growth estimate of under -0.25.
GLGGSLRMRSEGQNTPGYNL was tested, and the growth estimate was under -0.25.
For SPST, the growth estimate was under -0.25.
Substance GRDVGYLSGASVVLASIVTA has a growth estimate of under -0.25.
For GTRKRRCRG, the growth estimate was under -0.25.
With GETAKVSSLVSDLGLSQMPS the growth estimate was under -0.25.
With QGWQCMDRL the growth estimate was under -0.25.
SMTQ gave a growth estimate of under -0.25.
Work on PSSD yielded a growth estimate of under -0.25.
Work on SPPQRGHCSTPRSSLSPAHL yielded a growth estimate of under -0.25.
Substance NTVWSERGPRSTFYRHYRPA has a growth estimate of under -0.25.
TVGRKCGIIY showed a growth estimate of under -0.25.
With QRVHTLLGSLFLTGLQLVYR the growth estimate was under -0.25.
RHSGECYPSYTLLRTRLRER was tested, and the growth estimate was under -0.25.
Substance NGDE has a growth estimate of under -0.25.
With VWGNGPRDAVQQEIGTITPL the growth estimate was under -0.25.
HICITTCWAQLRWHRTEQPG showed a growth estimate of under -0.25.
Substance MSGENKRVLV has a growth estimate of under -0.25.
TGVSREIEG gave a growth estimate of under -0.25.
VAQRGGRPPMLHNIARERMR gave a growth estimate of under -0.25.
GHKQYYIGFANIIPHGKEKA was tested, and the growth estimate was under -0.25.
KIKSL was tested, and the growth estimate was under -0.25.
For ITCK, the growth estimate was under -0.25.
IKLSFGRREYAYGDPDLLLP gave a growth estimate of under -0.25.
With FPPGRDTSGKVSKLRLRIEA the growth estimate was under -0.25.
For FHHD, the growth estimate was under -0.25.
For HLNSAQLHGVWVRASKSFVY, the growth estimate was under -0.25.
With VAE the growth estimate was under -0.25.
KRIGEISEAV was tested, and the growth estimate was under -0.25.
WTRKWTICTIRIAIEVKEPV gave a growth estimate of under -0.25.
For NSHPEKTSNSVQRLRAFLPR, the growth estimate was under -0.25.
Work on IRRLNLDKVSASRLCTPDCH yielded a growth estimate of under -0.25.
For ARMVWCYSDGIALD, the growth estimate was under -0.25.
Substance RWGLCVSGERGGTSH has a growth estimate of under -0.25.
Work on LITYSHTRIWMVLCLFSV yielded a growth estimate of under -0.25.
GNGLLRRNTSSYVAWVVTLG gave a growth estimate of under -0.25.
With TVVSRNPGTTL the growth estimate was under -0.25.
Work on ICGHRQLRVGHLSMTT yielded a growth estimate of under -0.25.
With CWKTAQARLCPCPRRRGNFL the growth estimate was under -0.25.
Work on PACSAFVTYPQ yielded a growth estimate of under -0.25.
Work on AVSNDNLRARISTCELLTRQ yielded a growth estimate of under -0.25.
VVVWSPGRGRATAGSKCVGR was tested, and the growth estimate was under -0.25.
For NLKAEPMTD, the growth estimate was under -0.25.
In the case of LWLCKDLDGVRFLVRLA, the growth estimate is reported as under -0.25.
Work on LIPGT yielded a growth estimate of under -0.25.
Substance GMPDGRPDFTIVTGDADIAP has a growth estimate of under -0.25.
Substance HRLEHLDLVS has a growth estimate of under -0.25.
For PVRVRGRVHARHSRGYLRSL, the growth estimate was under -0.25.
For EAKDEKGFDTNAFCSKLWKA, the growth estimate was under -0.25.
LQTCYCQNAISGDRYVSSFD was tested, and the growth estimate was under -0.25.
For TCAQQTV, the growth estimate was under -0.25.
Substance RIGCHPLAGKRVRRTVAPSR has a growth estimate of under -0.25.
Substance TRVLPADDKFERSGGASSMR has a growth estimate of under -0.25.
For PVNWSAFDRRVPGRRSNRAR, the growth estimate was under -0.25.
